From PubChem BioAssay AID1347426 (Functional Genomics Laboratory (NCATS/FGL), 2020) come the findings set out here.

The campaign covered roughly 31,000 sequences. About 1,400 (4.5%) were called active.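 The calls were made as follows: active = median seed-adjusted z-score above 1 or below -1; inactive = the rest.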 This is one part of the list.

This assay in a line: Novel Modifiers of Survival Motor Neuron (SMN) Protein: Gene Identification via Genome-wide siRNA Screen.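 Also: luminescence tracks full-length SMN protein made from the SMN2 reporter.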 To be noted: HEK293T SMN2-luciferase reporter, siRNA knockdown, 72 h; actives lie on both sides. The method in brief: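 HEK293T cells stably carrying an SMN2 promoter/splicing cassette–luciferase reporter were reverse-transfected with 1 pmol siRNA per well (druggable-genome library, 3 siRNAs per gene) and grown 72 h at 37 °C. Luminescence, normalized to negative-control siRNA and log10-transformed, was scored as MAD.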
In general terms: A reporter such as luciferase makes a cellular process visible.
Turning to CGAGCAAUAUGACCAUCUUTT against CD86, the median seed-adjusted z-score was inactive: 0.

With GCUCGGCUACUGAAAGUCATT against DNALI1, the median seed-adjusted z-score is inactive: 0.699.

As to CCAAAGAUGUUUCAUCUGATT against PCDHGA7, the median seed-adjusted z-score is inactive: 0.705.

GGGAGACAGUGCUCACGAATT against REM2: the median seed-adjusted z-score is inactive: 0.109.

Consider CCUUAUCCGAGAAUACAUUTT against TUBAL3, for which the median seed-adjusted z-score is active: 1.05.

Regarding CAUCGUUUCUAGACCAUUATT against OXGR1, the median seed-adjusted z-score is inactive: -0.0388.

Regarding GAACGGCUCUUAAGAUCAATT against CACNA1D, the median seed-adjusted z-score is inactive: -0.0856.

Consider GGAUUAUCCUCGACUUACATT against DYNC1LI1, for which the median seed-adjusted z-score was inactive: -0.683.

For the sequence GGUCAAGUUUUUGAUCAGATT against CPM, the median seed-adjusted z-score is inactive: 0.549.

CUGUCCGUAUGAUUACAAATT against ZFAND5: the median seed-adjusted z-score is inactive: 0.0289.

On to GGGUCUCAGCUGUACUCUATT against KCNJ13, for which the median seed-adjusted z-score is inactive: 0.327.

Consider GCAAAGACCUGUGAAGCUATT against NAT14, for which the median seed-adjusted z-score is inactive: -0.283.

For the sequence CAAUCCGGCGGAAAUCAGATT against CDX1, the median seed-adjusted z-score was inactive: 0.

Consider UGACCGCUCCCUUCGCAAATT against ACP5, for which the median seed-adjusted z-score is inactive: 0.353.

In the case of GAAUGUUAGUAGACGGGUUTT against IKZF5, the median seed-adjusted z-score is inactive: 0.399.

In the case of GACUCAUACCAAUCACGAATT against JMJD1A, the median seed-adjusted z-score was inactive: 0.466.

ACAGAAACUUUGAGGUGGATT against MAP2K3: the median seed-adjusted z-score is inactive: 0.365.

Turning to CAUCUGCGGUAGAAAAGGATT against SERTAD3, the median seed-adjusted z-score was inactive: -0.216.

As for CCAUUUUAGCUCUAGAAGATT against GSTA4, the median seed-adjusted z-score was inactive: -0.848.

On to GGUGUAUGUUGGUAUCAGUTT against RSF1, for which the median seed-adjusted z-score was inactive: 0.

Regarding GACCUGUGCUUGCUAAAGATT against ZNF653, the median seed-adjusted z-score is inactive: -0.202.

On to CCUCAAUCAGUCUACAGAATT against USP29, for which the median seed-adjusted z-score was inactive: 0.00928.

CCAGUACACUUUUGUCUGATT against CDC5L: the median seed-adjusted z-score is inactive: -0.628.

Take GAGACAAGAUUGUAGCAGATT against DLG5: the median seed-adjusted z-score is inactive: 0.467.

Take GCAACCAAAUCGGAUGAUATT against ADAMTSL1: the median seed-adjusted z-score was inactive: -0.107.

On to ACCGCACGAUGUUCAACUUTT against DNAJC30, for which the median seed-adjusted z-score is inactive: 0.329.

As for GAGUUUCUGUCCAAACUGATT against IL17RA, the median seed-adjusted z-score was active: -1.29.

In the case of GAGUCUUAGUAAAAGAAUUTT against GK, the median seed-adjusted z-score was inactive: -0.474.

Take CCAGUGCUUGAGUAUCCAATT against ACOX3: the median seed-adjusted z-score is inactive: 0.658.

Consider GGAAUAUACAUGUCAAGAATT against GRPR, for which the median seed-adjusted z-score is inactive: 0.121.

For the sequence CUAUCCAACUCAAACGAUUTT against USP9Y, the median seed-adjusted z-score is inactive: 0.012.

Take CUUCAUCGAUAUCUACUUUTT against CATSPER3: the median seed-adjusted z-score is inactive: 0.685.

GGAAGUCGACAGUUAAAAUTT against DUSP14: the median seed-adjusted z-score was inactive: 0.0654.

In the case of GAAUAGCAAUUACAGUUAATT against SRR, the median seed-adjusted z-score was inactive: -0.256.

With CCACUUACUUUAGAAGACATT against ZNF77, the median seed-adjusted z-score was inactive: 0.345.

Consider CGAAGUUCAUAGACGAGAUTT against PPP1R2, for which the median seed-adjusted z-score was inactive: 0.208.

For GCACGGCAAUUGAAGCAUATT against CCNG1, the median seed-adjusted z-score is inactive: 0.131.

Regarding GACCUGACAGGACAACCUATT against MDFI, the median seed-adjusted z-score is inactive: 0.279.

On to CGCUCCAAAGAGUACAUAUTT against TIA1, for which the median seed-adjusted z-score is inactive: -0.188.

Regarding CCACUGACAAGGUCCACGATT against MRGPRD, the median seed-adjusted z-score is inactive: -0.484.

Regarding GCUUCGUGACGCACACCAATT against PISD, the median seed-adjusted z-score is inactive: 0.231.

For CCUCCCAUCUUAUUAUCCATT against ZNF572, the median seed-adjusted z-score was inactive: 0.237.

As for GGAUUAAACCAGACCGUGUTT against IRX5, the median seed-adjusted z-score was inactive: -0.373.

On to GCAAGAAAGCUAACACUUATT against VAX2, for which the median seed-adjusted z-score is inactive: -0.71.

CCAUGAAUCUACUAAAGCATT against QARS: the median seed-adjusted z-score is inactive: -0.411.

Regarding CUGUCGUCCUCAACCCUAUTT against NDST3, the median seed-adjusted z-score was inactive: 0.476.

For AGAAGACCAUUGUCAAGGATT against EXOC7, the median seed-adjusted z-score was inactive: -0.231.

As for GCACGUCUACAGUCACACUTT against ZNF764, the median seed-adjusted z-score is inactive: 0.184.

On to GAGACUAUUAUAUCGAGUATT against TRPA1, for which the median seed-adjusted z-score was inactive: 0.341.

Turning to GAUUUAAAGGUGUAUGGAATT against SLC25A3, the median seed-adjusted z-score was inactive: -0.495.

In the case of GGACUUGCUAAAACCAGAATT against TUBGCP3, the median seed-adjusted z-score was inactive: -0.685.

As for CCUCGUACCUUGUACAACATT against ZNF30, the median seed-adjusted z-score is inactive: -0.0208.

Regarding GGUCAUUAGGAACUAUUCUTT against VAV3, the median seed-adjusted z-score is inactive: 0.

AGUUUAAUCGGAAAGCCUUTT against NANS: the median seed-adjusted z-score was active: -1.54.

For the sequence GACUAUGUCCUGACAUAUATT against DSC2, the median seed-adjusted z-score is inactive: -0.0641.

On to GGAUGUGGACAGUGCCUAUTT against KRT3, for which the median seed-adjusted z-score is inactive: 0.399.

Regarding CGAUGGAAAUUCCGAAAGATT against ACAD10, the median seed-adjusted z-score was inactive: -0.269.

Regarding CAUCAACUUAUUACGUUAATT against CENPE, the median seed-adjusted z-score is inactive: 0.298.

With CAAUGACGGCAAGUCUAAATT against PTPN11, the median seed-adjusted z-score was inactive: 0.186.

For GCACCUUUAUCUAUGGUUATT against PSMB9, the median seed-adjusted z-score is inactive: -0.788.

For the sequence GGCUCAAGAGUAUUUCUGATT against MIP, the median seed-adjusted z-score is inactive: 0.702.

Regarding GAUUACCCUUAGAUCAUAUTT against NARG1, the median seed-adjusted z-score was active: -1.02.

In the case of CAGUCUUCCUUAUUAUUAATT against SLC43A3, the median seed-adjusted z-score was inactive: 0.431.

Turning to GAUCUUCAGUCACCUUCAATT against CA12, the median seed-adjusted z-score was inactive: -0.0119.

For CAAGUGCAUUGGUGAAAGATT against IL5, the median seed-adjusted z-score is inactive: -0.229.

For CGGAAAGUACUUAAACGGATT against PIAS4, the median seed-adjusted z-score was inactive: 0.265.

Turning to GGACUCAGAUGAGUUUUAUTT against CYP11B2, the median seed-adjusted z-score was inactive: 0.459.

In the case of CCAGCAGCAUGGAAGUUGUTT against HSD3B7, the median seed-adjusted z-score was inactive: -0.0819.

Regarding GAGCGAGACAUAAAAUAUUTT against ZNF257, the median seed-adjusted z-score is inactive: 0.306.
